The target of this assay is T1, Full-length human E6AP (E6-associated protein) (human), Q05086.
T1 chain: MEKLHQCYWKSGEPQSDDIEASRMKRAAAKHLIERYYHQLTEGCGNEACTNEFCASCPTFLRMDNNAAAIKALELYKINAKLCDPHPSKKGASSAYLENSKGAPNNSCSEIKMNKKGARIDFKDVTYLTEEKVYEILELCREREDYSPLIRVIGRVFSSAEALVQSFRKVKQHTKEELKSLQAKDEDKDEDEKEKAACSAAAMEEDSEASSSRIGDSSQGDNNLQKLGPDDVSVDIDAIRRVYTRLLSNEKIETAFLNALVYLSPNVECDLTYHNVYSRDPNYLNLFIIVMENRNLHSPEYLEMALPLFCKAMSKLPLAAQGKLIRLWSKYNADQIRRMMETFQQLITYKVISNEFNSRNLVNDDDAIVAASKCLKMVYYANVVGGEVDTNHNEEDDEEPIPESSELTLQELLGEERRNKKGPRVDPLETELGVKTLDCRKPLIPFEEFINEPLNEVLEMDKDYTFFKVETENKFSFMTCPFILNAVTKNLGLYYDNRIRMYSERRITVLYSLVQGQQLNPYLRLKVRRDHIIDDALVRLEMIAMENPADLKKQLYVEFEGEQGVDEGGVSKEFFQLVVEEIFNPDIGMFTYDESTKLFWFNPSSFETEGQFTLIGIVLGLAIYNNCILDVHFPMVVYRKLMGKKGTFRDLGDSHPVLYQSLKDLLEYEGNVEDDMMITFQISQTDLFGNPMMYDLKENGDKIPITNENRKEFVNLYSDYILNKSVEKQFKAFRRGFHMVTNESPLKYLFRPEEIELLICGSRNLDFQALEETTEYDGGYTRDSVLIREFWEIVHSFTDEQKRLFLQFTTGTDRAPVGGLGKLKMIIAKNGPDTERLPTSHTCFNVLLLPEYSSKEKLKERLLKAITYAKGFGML
In words: cryo-EM structure. To be noted: remark: other sources report otherwise.

This note sets out measurements from article doi:10.1101/2023.11.01.565136.

These are yes or no findings as the source states them, for the method shown. Some results given as binding are weak or reduced against the parent protein; the word gives no strength.

B1: Full-length human E6AP (E6-associated protein), Q05086 1-875 (enzyme)
chain: MEKLHQCYWKSGEPQSDDIEASRMKRAAAKHLIERYYHQLTEGCGNEACTNEFCASCPTFLRMDNNAAAIKALELYKINAKLCDPHPSKKGASSAYLENSKGAPNNSCSEIKMNKKGARIDFKDVTYLTEEKVYEILELCREREDYSPLIRVIGRVFSSAEALVQSFRKVKQHTKEELKSLQAKDEDKDEDEKEKAACSAAAMEEDSEASSSRIGDSSQGDNNLQKLGPDDVSVDIDAIRRVYTRLLSNEKIETAFLNALVYLSPNVECDLTYHNVYSRDPNYLNLFIIVMENRNLHSPEYLEMALPLFCKAMSKLPLAAQGKLIRLWSKYNADQIRRMMETFQQLITYKVISNEFNSRNLVNDDDAIVAASKCLKMVYYANVVGGEVDTNHNEEDDEEPIPESSELTLQELLGEERRNKKGPRVDPLETELGVKTLDCRKPLIPFEEFINEPLNEVLEMDKDYTFFKVETENKFSFMTCPFILNAVTKNLGLYYDNRIRMYSERRITVLYSLVQGQQLNPYLRLKVRRDHIIDDALVRLEMIAMENPADLKKQLYVEFEGEQGVDEGGVSKEFFQLVVEEIFNPDIGMFTYDESTKLFWFNPSSFETEGQFTLIGIVLGLAIYNNCILDVHFPMVVYRKLMGKKGTFRDLGDSHPVLYQSLKDLLEYEGNVEDDMMITFQISQTDLFGNPMMYDLKENGDKIPITNENRKEFVNLYSDYILNKSVEKQFKAFRRGFHMVTNESPLKYLFRPEEIELLICGSRNLDFQALEETTEYDGGYTRDSVLIREFWEIVHSFTDEQKRLFLQFTTGTDRAPVGGLGKLKMIIAKNGPDTERLPTSHTCFNVLLLPEYSSKEKLKERLLKAITYAKGFGML
Regarding B1, the binding entry is given as “binds”.
